From doi:10.1101/2025.07.06.663161 (bioRxiv, 2025) come the findings set out here.

In test [1] the target is GFP-tagged wild-type Cdc19 (pyruvate kinase Cdc19) (S. cerevisiae) (UniProt P00549). In words: semi-denaturing detergent agarose gel electrophoresis.
In test [2] the target is GFP-tagged phosphomimicking Cdc19-3E (S56E, S70E, S175E) (S. cerevisiae) (UniProt P00549). The test is described as follows: SEC.

Where a chain is given by its changes, count along the chain named. Names and notes keep the numbering of the source. These are yes or no findings as the source states them, for the method shown. Some results given as binding are weak or reduced against the parent protein; the word gives no strength. Sequences can lack the tags named with a protein.

B1: Recombinant wild-type Cdc19, Strep-tagged (SUMO tag cleaved off) (natural protein)
chain: MSRLERLTSLNVVAGSDLRRTSIIGTIGPKTNNPETLVALRKAGLNIVRMNFSHGSYEYHKSVIDNARKSEELYPGRPLAIALDTKGPEIRTGTTTNDVDYPIPPNHEMIFTTDDKYAKACDDKIMYVDYKNITKVISAGRIIYVDDGVLSFQVLEVVDDKTLKVKALNAGKICSHKGVNLPGTDVDLPALSEKDKEDLRFGVKNGVHMVFASFIRTANDVLTIREVLGEQGKDVKIIVKIENQQGVNNFDEILKVTDGVMVARGDLGIEIPAPEVLAVQKKLIAKSNLAGKPVICATQMLESMTYNPRPTRAEVSDVGNAILDGADCVMLSGETAKGNYPINAVTTMAETAVIAEQAIAYLPNYDDMRNCTPKPTSTTETVAASAVAAVFEQKAKAIIVLSTSGTTPRLVSKYRPNCPIILVTRCPRAARFSHLYRGVFPFVFEKEPVSDWTDDVEARINFGIEKAKEFGILKKGDTYVSIQGFKAGAGHSNTLQVSTV
In the case of B1, the binding result in test [1] is recorded as “binds”.

B2: Recombinant phosphomimicking Cdc19-3E (S56E, S70E, S175E), Strep-tagged (SUMO tag cleaved off) (natural protein)
chain: B1 chain with S56E, S70E, S175E
For B2, the binding result in test [2] is “binds”.
